The values below come from the supplement of paper PMC11659162.

Where “and” joins values, the source holds several entries; their conditions need not be identical. Equal entries are not always repeated. The list shows a part of the results. Single values of this set are uncertain.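 The cells are a human neuroglioma line carrying a green fluorescent autophagy reporter.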

One test has as its system H4 GFP-LC3. Nature of the test: cell viability (scaled to control) (fraction of control); higher = more viable cells. The note with it: 5 µM; 6 h.
`NC1CCc2cc(O)c(O)cc2C1` (stereo not given): the cell viability was 0.748.

Molecule `NCC(CS(=O)(=O)O)c1ccc(Cl)cc1` (stereo not given) came in with a cell viability of 0.879.

In turn, `CC(=O)N1CC[N+](C)(C)CC1` registered a cell viability of 1.05.

`CCCN1CCC[C@@H]2Cc3nc(N)ncc3C[C@H]21` yielded a cell viability of 0.769.

As to `CCCC[N+]1(C)[C@@H]2CC(OC(=O)[C@H](CO)c3ccccc3)C[C@H]1[C@@H]1O[C@@H]12` (stereo not given in full), the cell viability was determined as 1.07.

Regarding `Oc1ccc2c3c1O[C@H]1c4[nH]c5c(c4C[C@@]4(O)[C@@H](C2)N(CC2CC2)CC[C@]314)C[C@@]1(O)[C@H]2Cc3ccc(O)c4c3[C@@]1(CCN2CC1CC1)[C@H]5O4`, the cell viability is 1.09.

`O=C1CC[C@@]2(O)[C@H]3Cc4ccc(O)c5c4[C@@]2(CCN3CC2CC2)[C@H]1O5` had a cell viability of 1.1.

In turn, `COC(=O)/C=C/C(=O)N[C@@H]1CC[C@@]2(O)[C@H]3Cc4ccc(O)c5c4[C@@]2(CCN3CC2CC2)[C@H]1O5` had a cell viability of 0.971.

Regarding `N=C(N)NCCCCCCCCCCNC(=N)N`, the cell viability amounted to 1.13.

In turn, `CCN(CC)C(=O)N[C@H]1C=C2c3cccc4[nH]cc(c34)C[C@H]2N(C)C1` yielded a cell viability of 0.707.

As to `CN1CCC(c2c[nH]c3ccc(O)cc23)CC1`, the cell viability is 0.849.

In the case of `CCC(C)C(NC(=O)C1CCCN1C(=O)C(CCC(=O)O)NC(=O)C(NC(=O)C(Cc1ccccc1)NC(=O)C1CCCN1C(=O)C(N)Cc1ccc(O)cc1)C(C)C)C(=O)O` (stereo not given), the cell viability was determined as 1.14.

In the case of `COc1ccc2[nH]cc(C3=CCNCC3)c2c1`, the cell viability was 0.877.

For the molecule `CCC1(C2=NCCN2)Cc2ccccc2O1` (stereo not given), the cell viability turned out to be 0.714.

`CN(C)CCN(C)CCc1ccc(Cl)c(Cl)c1` showed a cell viability of 0.95.

Consider `C=CC[N+]1(C)CC[C@]23c4c5ccc(O)c4O[C@H]2C(=O)CC[C@@]3(O)[C@H]1C5` (stereo not given in full), for which the cell viability stood at 0.967.

With `CC(N)Cc1cnc[nH]1` (stereo not given), the cell viability is 1.02 and 1.01.

For `CC12NC(Cc3ccccc31)c1ccccc12` (single isomer, unassigned; (+)), the cell viability stood at 0.991.

For the molecule `O=C1/C(=C/c2ccccc2)C[C@@]2(O)[C@H]3Cc4ccc(O)c5c4[C@@]2(CCN3CC2CC2)[C@H]1O5`, the cell viability is 1.1.

The molecule `CCc1c(C(=O)OC)ncc2[nH]c3cc(OC)c(OC)cc3c12` had a cell viability of 0.883.

For `c1ccc2c(c1)OCC(C1=NCCN1)O2` (stereo not given), the cell viability came out at 0.644.

The molecule `C[N+](C)(C)CCCCCCCCCC[N+](C)(C)C` registered a cell viability of 0.91.

In turn, `CCOC(OCC)P(=O)(O)CCCN` came in with a cell viability of 0.949.

For `CN1C(=O)CCS(=O)(=O)C1c1ccc(Cl)cc1` (stereo not given), the cell viability amounted to 0.767.

`CN1CC[C@@H]2CN3CCc4cccc(c43)[C@@H]2C1` yielded a cell viability of 0.85.

As to `C=C(C)[C@@H]1[C@H]2OC(=O)[C@@H]1[C@]1(O)C[C@H]3O[C@]34C(=O)O[C@H]2[C@]14C`, the cell viability turned out to be 0.797.

For the molecule `Oc1ccc2c3c1O[C@H]1c4[nH]c5ccccc5c4C[C@@]4(O)[C@@H](C2)N(CC2CC2)CC[C@]314`, the cell viability is 0.982.

`CC(C)C[C@H](NC(=O)[C@H](Cc1ccccc1)NC(=O)CNC(=O)[C@@H](CSC(C)(C)C)NC(=O)[C@@H](N)Cc1ccc(O)cc1)C(=O)N[C@H](C(=O)OC(C)(C)C)[C@@H](C)O`: the cell viability amounted to 1.09.

The molecule `C1CCc2nnnn2CC1` gave a cell viability of 0.885.

In turn, `CNCCc1ccc(O)c(O)c1` came in with a cell viability of 0.717.

As for `C=CCN1C[C@H](C(=O)N(CCCN(C)C)C(=O)NCC)C[C@@H]2c3cccc4[nH]cc(c34)C[C@H]21`, the cell viability came out at 0.889.

On to `CC(C)CC1C(=O)N2CCCC2C2(O)OC(NC(=O)C3C=C4c5cccc6[nH]cc(c56)CC4N(C)C3)(C(C)C)C(=O)N12` (stereo not given), for which the cell viability was found to be 0.792.

`COc1ccc(CCN2CCC(Nc3nc4ccccc4n3Cc3ccc(F)cc3)CC2)cc1` came in with a cell viability of 0.89.

`CN(C(=O)Cc1ccc(Cl)c(Cl)c1)[C@H](CN1CCCC1)c1ccccc1` returned a cell viability of 1.03.

Turning to `CCCN(CCC)C1CCc2cccc(O)c2C1` (stereo not given), the cell viability came to 0.71.

The same test, now with this note: 5 µM; 24 h.
`NC1CCc2cc(O)c(O)cc2C1` (stereo not given): the cell viability is 1.38.

Regarding `NCC(CS(=O)(=O)O)c1ccc(Cl)cc1` (stereo not given), the cell viability was 0.825.

Regarding `CC(=O)N1CC[N+](C)(C)CC1`, the cell viability was 1.09.

As for `CCCN1CCC[C@@H]2Cc3nc(N)ncc3C[C@H]21`, the cell viability was 1.43.

`CCCC[N+]1(C)[C@@H]2CC(OC(=O)[C@H](CO)c3ccccc3)C[C@H]1[C@@H]1O[C@@H]12` (stereo not given in full) had a cell viability of 1.22.

The molecule `Oc1ccc2c3c1O[C@H]1c4[nH]c5c(c4C[C@@]4(O)[C@@H](C2)N(CC2CC2)CC[C@]314)C[C@@]1(O)[C@H]2Cc3ccc(O)c4c3[C@@]1(CCN2CC1CC1)[C@H]5O4` displayed a cell viability of 1.07.

In the case of `O=C1CC[C@@]2(O)[C@H]3Cc4ccc(O)c5c4[C@@]2(CCN3CC2CC2)[C@H]1O5`, the cell viability was 0.918.

`COC(=O)/C=C/C(=O)N[C@@H]1CC[C@@]2(O)[C@H]3Cc4ccc(O)c5c4[C@@]2(CCN3CC2CC2)[C@H]1O5`: the cell viability came to 1.05.

For the molecule `N=C(N)NCCCCCCCCCCNC(=N)N`, the cell viability is 1.16.

With `CCN(CC)C(=O)N[C@H]1C=C2c3cccc4[nH]cc(c34)C[C@H]2N(C)C1`, the cell viability was 1.06.

Take `CN1CCC(c2c[nH]c3ccc(O)cc23)CC1`: the cell viability stood at 1.09.

On to `CCC(C)C(NC(=O)C1CCCN1C(=O)C(CCC(=O)O)NC(=O)C(NC(=O)C(Cc1ccccc1)NC(=O)C1CCCN1C(=O)C(N)Cc1ccc(O)cc1)C(C)C)C(=O)O` (stereo not given), for which the cell viability was 1.22.

For `COc1ccc2[nH]cc(C3=CCNCC3)c2c1`, the cell viability turned out to be 0.871.

`CCC1(C2=NCCN2)Cc2ccccc2O1` (stereo not given): the cell viability was found to be 0.839.

As to `CN(C)CCN(C)CCc1ccc(Cl)c(Cl)c1`, the cell viability was 0.902.

As for `C=CC[N+]1(C)CC[C@]23c4c5ccc(O)c4O[C@H]2C(=O)CC[C@@]3(O)[C@H]1C5` (stereo not given in full), the cell viability turned out to be 1.24.

Take `CC(N)Cc1cnc[nH]1` (stereo not given): the cell viability was 1.13 and 1.02.

On to `CC12NC(Cc3ccccc31)c1ccccc12` (single isomer, unassigned; (+)), for which the cell viability was found to be 1.16.

On to `O=C1/C(=C/c2ccccc2)C[C@@]2(O)[C@H]3Cc4ccc(O)c5c4[C@@]2(CCN3CC2CC2)[C@H]1O5`, for which the cell viability was found to be 1.22.

In turn, `CCc1c(C(=O)OC)ncc2[nH]c3cc(OC)c(OC)cc3c12` returned a cell viability of 1.01.

On to `c1ccc2c(c1)OCC(C1=NCCN1)O2` (stereo not given), for which the cell viability turned out to be 0.79.

As for `C[N+](C)(C)CCCCCCCCCC[N+](C)(C)C`, the cell viability was 0.977.

In turn, `CCOC(OCC)P(=O)(O)CCCN` showed a cell viability of 1.17.

In turn, `CN1C(=O)CCS(=O)(=O)C1c1ccc(Cl)cc1` (stereo not given) gave a cell viability of 0.929.

For the molecule `CN1CC[C@@H]2CN3CCc4cccc(c43)[C@@H]2C1`, the cell viability came to 1.06.

Molecule `C=C(C)[C@@H]1[C@H]2OC(=O)[C@@H]1[C@]1(O)C[C@H]3O[C@]34C(=O)O[C@H]2[C@]14C` had a cell viability of 0.861.

On to `Oc1ccc2c3c1O[C@H]1c4[nH]c5ccccc5c4C[C@@]4(O)[C@@H](C2)N(CC2CC2)CC[C@]314`, for which the cell viability came out at 1.07.

In the case of `CC(C)C[C@H](NC(=O)[C@H](Cc1ccccc1)NC(=O)CNC(=O)[C@@H](CSC(C)(C)C)NC(=O)[C@@H](N)Cc1ccc(O)cc1)C(=O)N[C@H](C(=O)OC(C)(C)C)[C@@H](C)O`, the cell viability amounted to 0.875.

Turning to `C1CCc2nnnn2CC1`, the cell viability came out at 1.02.

Molecule `CNCCc1ccc(O)c(O)c1` registered a cell viability of 1.24.

Molecule `C=CCN1C[C@H](C(=O)N(CCCN(C)C)C(=O)NCC)C[C@@H]2c3cccc4[nH]cc(c34)C[C@H]21` came in with a cell viability of 1.16.

Take `CC(C)CC1C(=O)N2CCCC2C2(O)OC(NC(=O)C3C=C4c5cccc6[nH]cc(c56)CC4N(C)C3)(C(C)C)C(=O)N12` (stereo not given): the cell viability was 1.23.

The molecule `COc1ccc(CCN2CCC(Nc3nc4ccccc4n3Cc3ccc(F)cc3)CC2)cc1` showed a cell viability of 0.78.

For the molecule `CN(C(=O)Cc1ccc(Cl)c(Cl)c1)[C@H](CN1CCCC1)c1ccccc1`, the cell viability is 1.08.

With `CCCN(CCC)C1CCc2cccc(O)c2C1` (stereo not given), the cell viability amounted to 0.856.
